PubChem BioAssay AID504774 | Drosophila RNAi Screening Center, 2011
The deposit covers about 23,000 reagents; below is a random part of those that have a named target and a result. 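Values are quantile-normalised luminescence on an arbitrary scale; higher means more cells surviving MMS.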 The numbers tell different reagents against one gene apart. Further read-outs or replicates are left out here.

- Aim: 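Knock-downs that shift viability of MMS-exposed cells relative to untreated ones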 (primary screen)
- System: Drosophila Kc167 cells
- Reagent: long dsRNA against Drosophila genes, about 0.25 µg dsRNA per well
- Duration: about 6 days: 3 days knock-down, then 3 days with or without MMS
- Treatment: methyl methanesulphonate 0.004% (w/v) for 3 days after knock-down
- Measurement: 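Viability in wells given MMS, read as ATP luminescence, normalised by quantiles plate by plate and averaged across replicates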
- Reading the numbers: mean viability with MMS: higher = more surviving cells after MMS

mean viability with MMS, by gene knocked down and reagent
CG9297: #1 3.49e6
Gr85a: #1 3.64e6
mRpL15: #1 3.73e6
CG16964: #1 3.54e6
Ptpa: #1 3.65e6
CG32681: #1 3.47e6
Met: #1 3.53e6
Rcd1: #1 3.58e6
CG33259: #1 3.51e6
trp: #1 3.56e6
CG6763: #1 3.68e6
AsnRS: #1 3.41e6
CG17104: #1 3.37e6
CG6479: #1 3.45e6
bon: #1 3.63e6
CG7772: #1 3.74e6
DIP-beta: #1 2.38e6; #2 4.00e6; #3 3.80e6; #4 3.89e6
ATPsynE: #1 3.67e6
ND-B17.2: #1 3.51e6
CycK: #1 3.09e6
ZIPIC: #1 3.50e6
CG31549: #1 3.57e6
CG34338: #1 3.49e6
CG11608: #1 3.50e6
CG31832: #1 3.81e6
Cdc37: #1 3.54e6
Prx3: #1 3.65e6
CG10747: #1 3.59e6
unc-104: #1 3.58e6
ttm3: #1 3.55e6
Sfp93F: #1 1.83e6
CG32945: #1 3.42e6
snRNP-U1-70K: #1 3.73e6; #2 3.18e6
Tina-1: #1 3.53e6
CG9550: #1 3.58e6
CG10996: #1 3.54e6
CG31960: #1 3.50e6
CG17734: #1 3.58e6
Ance-2: #1 3.55e6
mad2: #1 3.50e6
TM4SF: #1 3.36e6
Camp: #1 3.73e6
ND-19: #1 3.60e6
CG15312: #1 3.40e6
hog: #1 3.28e6
btz: #1 3.33e6
crp: #1 3.33e6
CG9395: #1 3.49e6
Sgs1: #1 3.64e6; #2 3.37e6
CG5565: #1 3.46e6
CG13318: #1 3.49e6
Ibf1: #1 3.39e6
CG14374: #1 3.66e6
CG43901: #1 3.43e6; #2 2.94e6
esc: #1 3.66e6
Nmdar1: #1 3.84e6; #2 3.77e6
Liprin-alpha: #1 3.50e6
mEFTs: #1 3.51e6
Osi6: #1 3.47e6
CG32219: #1 3.69e6
Usp30: #1 3.70e6

11 entries already listed, sorted by “mean viability with MMS”, descending.
gene knocked down	reagent no.	mean viability with MMS
snRNP-U1-70K	1	3.73e6
Prx3	1	3.65e6
CG10747	1	3.59e6
unc-104	1	3.58e6
CG9550	1	3.58e6
ttm3	1	3.55e6
Cdc37	1	3.54e6
Tina-1	1	3.53e6
CG32945	1	3.42e6
snRNP-U1-70K	2	3.18e6
Sfp93F	1	1.83e6
